Data as given in paper PMC4691241, “Activation of ULK Kinase and Autophagy by GABARAP Trafficking from the Centrosome Is Regulated by WAC and GM130” (Molecular Cell, 2015).
No constants are given. Whether binding was seen depends on the method and setting. Some binding calls cover weakened binding; strength is not graded here. Tags and fused reporters may be left off the sequences shown.

The chains behind the UniProt entries cited, without tags or fusion partners.
UniProt O95166: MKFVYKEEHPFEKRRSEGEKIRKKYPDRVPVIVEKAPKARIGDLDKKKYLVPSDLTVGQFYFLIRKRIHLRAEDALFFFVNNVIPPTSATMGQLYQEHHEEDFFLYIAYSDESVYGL

Biological target: GST-GABARAP, recombinant (UniProt O95166)
Experiment: pull-down; purified Strep II-GM130 incubated with recombinant WAC 320–647 before binding to recombinant GST or GST-GABARAP beads, immunoblot; both purified

binding: binds
B1: Strep-Tag II-GM130, purified (protein, UniProt Q08379 1-1002)
chain: MWPQPRLPPRPAMSEETRQSKLAAAKKKLREYQQRNSPGVPTGAKKKKKIKNGSNPETTTSGGCHSPEDTPKDNAATLQPSDDTVLPGGVPSPGASLTSMAASQNHDADNVPNLMDETKTFSSTESLRQLSQQLNGLVCESATCVNGEGPASSANLKDLESRYQQLAVALDSSYVTNKQLNITIEKLKQQNQEITDQLEEEKKECHQKQGALREQLQVHIQTIGILVSEKAELQTALAHTQHAARQKEGESEDLASRLQYSRRRVGELERALSAVSTQQKKADRYNKELTKERDALRLELYKNTQSNEDLKQEKSELEEKLRVLVTEKAGMQLNLEELQKKLEMTELLLQQFSSRCEAPDANQQLQQAMEERAQLEAHLGQVMESVRQLQMERDKYAENLKGESAMWRQRMQQMSEQVHTLREEKECSMSRVQELETSLAELRNQMAEPPPPEPPAGPSEVEQQLQAEAEHLRKELEGLAGQLQAQVQDNEGLSRLNREQEERLLELERAAELWGEQAEARRQILETMQNDRTTISRALSQNRELKEQLAELQSGFVKLTNENMEITSALQSEQHVKRELGKKLGELQEKLSELKETVELKSQEAQSLQQQRDQYLGHLQQYVAAYQQLTSEKEVLHNQLLLQTQLVDQLQQQEAQGKAVAEMARQELQETQERLEAATQQNQQLRAQLSLMAHPGEGDGLDREEEEDEEEEEEEAVAVPQPMPSIPEDLESREAMVAFFNSAVASAEEEQARLRGQLKEQRVRCRRLAHLLASAQKEPEAAAPAPGTGGDSVCGETHRALQGAMEKLQSRFMELMQEKADLKERVEELEHRCIQLSGETDTIGEYIALYQSQRAVLKERHREKEEYISRLAQDKEEMKVKLLELQELVLRLVGDRNEWHGRFLAAAQNPADEPTSGAPAPQELGAANQQGDLCEVSLAGSVEPAQGEAREGSPRDNPTAQQIMQLLREMQNPRERPGLGSNPCIPFFYRADENDEVKITVI
